The target of this assay is Flag-JAK1 (Janus kinase 1) (human) (UniProt P23458). The assay is described as follows: affinity purification with mass spectrometry; Flag-JAK1 plasmid transfected into HEK293T cells with or without KRT6A plasmid; MG132 (50 uM) 4 h; NP-40 lysis buffer; anti-Flag magnetic beads 2 h; washes in 25 mM Tris pH 8.0, 150 mM NaCl, 0.2% NP40; Q Exactive mass spectrometry.

Protein sequences, listed by entry. Tags and fused reporters are not part of them.
UniProt P23458: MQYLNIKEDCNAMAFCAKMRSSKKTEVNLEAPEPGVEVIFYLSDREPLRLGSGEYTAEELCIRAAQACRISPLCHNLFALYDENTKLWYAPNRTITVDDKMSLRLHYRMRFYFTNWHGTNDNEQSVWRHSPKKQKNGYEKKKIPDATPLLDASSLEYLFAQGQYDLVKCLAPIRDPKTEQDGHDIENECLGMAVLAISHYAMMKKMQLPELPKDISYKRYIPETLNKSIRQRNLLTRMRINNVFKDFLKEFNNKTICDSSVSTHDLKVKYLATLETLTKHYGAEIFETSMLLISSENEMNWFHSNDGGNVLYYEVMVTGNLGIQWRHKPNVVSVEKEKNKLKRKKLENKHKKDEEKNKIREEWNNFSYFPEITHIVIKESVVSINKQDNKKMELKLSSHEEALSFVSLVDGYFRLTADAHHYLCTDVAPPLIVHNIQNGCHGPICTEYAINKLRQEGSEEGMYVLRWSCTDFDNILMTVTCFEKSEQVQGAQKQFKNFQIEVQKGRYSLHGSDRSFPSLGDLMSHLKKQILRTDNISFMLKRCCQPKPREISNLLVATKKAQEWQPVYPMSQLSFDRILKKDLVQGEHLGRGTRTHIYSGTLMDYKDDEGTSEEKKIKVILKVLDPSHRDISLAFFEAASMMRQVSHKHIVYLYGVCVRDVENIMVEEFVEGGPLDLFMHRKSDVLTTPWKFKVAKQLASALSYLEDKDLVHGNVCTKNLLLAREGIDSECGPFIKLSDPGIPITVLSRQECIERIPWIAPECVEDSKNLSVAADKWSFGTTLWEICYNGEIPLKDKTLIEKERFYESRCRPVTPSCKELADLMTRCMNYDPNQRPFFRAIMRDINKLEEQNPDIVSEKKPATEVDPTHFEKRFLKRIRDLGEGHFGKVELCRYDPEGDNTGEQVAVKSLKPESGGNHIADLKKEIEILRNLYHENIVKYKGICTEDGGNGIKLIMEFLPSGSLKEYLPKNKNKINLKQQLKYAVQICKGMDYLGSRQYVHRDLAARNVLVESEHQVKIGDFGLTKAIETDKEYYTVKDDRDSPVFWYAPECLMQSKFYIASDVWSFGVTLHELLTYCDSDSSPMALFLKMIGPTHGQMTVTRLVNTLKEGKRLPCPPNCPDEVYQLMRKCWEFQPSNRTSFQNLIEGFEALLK

No constants are given. Whether binding was seen depends on the method and setting. In cells and extracts the contact can be indirect. Here binding means that the protein was enriched with, or labelled near, the bait; the list need not be complete.

B1: RNF41, endogenous (hit of the JAK1 IP-MS) (enzyme, UniProt Q9H4P4 1-317)
chain: MGYDVTRFQGDVDEDLICPICSGVLEEPVQAPHCEHAFCNACITQWFSQQQTCPVDRSVVTVAHLRPVPRIMRNMLSKLQIACDNAVFGCSAVVRLDNLMSHLSDCEHNPKRPVTCEQGCGLEMPKDELPNHNCIKHLRSVVQQQQTRIAELEKTSAEHKHQLAEQKRDIQLLKAYMRAIRSVNPNLQNLEETIEYNEILEWVNSLQPARVTRWGGMISTPDAVLQAVIKRSLVESGCPASIVNELIENAHERSWPQGLATLETRQMNRRYYENYVAKRIPGKQAVVVMACENQHMGDDMVQEPGLVMIFAHGVEEI
Consider B1, for which the binding result was “binds”.

These data come from paper PMC12065298.
